Here are results for 24 compounds from PubChem BioAssay AID328 (DTP/NCI, 2004).

This experiment concerns BDF1 mice, P388 leukemia ip, median survival T/C. Nature of the experiment: NCI In Vivo Anticancer Drug Screen. Data for tumor model P388 Leukemia (intraperitoneal) in B6D2F1 (BDF1) mice. The settings on record: T/C endpoint: median survival time, higher T/C = longer survival. In outline:
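Read-out is survival of treated animals expressed relative to the vehicle group, as a T/C ratio.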

[1] abbreviates: dose: 25.0 mg/kg/injection, schedule: Q01DX009 (ip), vehicle: Klucel (hydroxypropylcellulose) (HPC).
Setting [2] is: dose: 100.0 mg/kg/injection, schedule: Q01DX009 (ip), vehicle: saline.
Where [3] appears, read: dose: 200.0 mg/kg/injection, schedule: Q04DX003 (ip), vehicle: saline with Tween-80.
Where [4] appears, read: dose: 50.0 mg/kg/injection, schedule: Q01DX009 (ip), vehicle: saline with Tween-80.
Setting [5] is: dose: 100.0 mg/kg/injection, schedule: Q01DX009 (ip), vehicle: saline with Tween-80.
Setting [6] is: dose: 200.0 mg/kg/injection, schedule: Q01DX009 (ip), vehicle: saline with Tween-80.
[7] abbreviates: dose: 200.0 mg/kg/injection, schedule: Q01DX009 (ip), vehicle: Klucel (hydroxypropylcellulose) (HPC).
The mark [8] stands for this setting: dose: 100.0 mg/kg/injection, schedule: Q04DX003 (ip), vehicle: Klucel (hydroxypropylcellulose) (HPC).
Where [9] appears, read: dose: 5.0 mg/kg/injection, schedule: Q01DX009 (ip), vehicle: saline with Tween-80.
The mark [10] stands for this setting: dose: 200.0 mg/kg/injection, schedule: Q04DX003 (ip), vehicle: saline.
Where [11] appears, read: dose: 400.0 mg/kg/injection, schedule: Q04DX003 (ip), vehicle: saline.

The list shows only some results of the screen, not a fair sample: it gathers tests that were run many times, whatever their T/C, doses with no T/C, and many T/C values between a quarter and a half above the control. Further doses and runs are listed elsewhere. T/C is the treated group as % of the vehicle group. Some entries give survivors of the animals treated and no T/C: the source holds a T/C of zero for them, seemingly a mark for toxic or unscored doses. Some doses without a T/C left all or most animals alive at the check, yet need not have been tolerated: survival well below the control is almost never listed, so the zero probably covers shortened survival too. Counts of survivors are from the toxicity check (mostly the fifth day) where no day follows; animals may have died later. Schedules are NCI's codes, taken here to give the interval after Q, in days (D) or hours (H), and the number of doses after X. Some molecules as drawn cover several salts, stereoisomers or complexes of the source; a dose is that of the sample tested. Some entries hold several experiments; the results are listed from low to high. Where survival is the endpoint, the PubChem record calls one and a half times the control and up active, and a quarter to a half above the control has no call in these data; cut-offs in other NCI protocols can differ. Some T/C values carry the count of animals alive at the toxicity check (mostly the fifth day); without a count, all were alive then.

Turning to `CC1CC[N-]CC1.CC1CC[N-]CC1.CC1CC[N-]CC1.CC1CC[N-]CC1.O=C([O-])C(=O)[O-].O=C([O-])C(=O)[O-].[Nb+5].[O-][O-].[O-][O-].[Pt+4]`, the survivor count (dose: 6.25 mg/kg/injection, schedule: Q01DX009 (ip), vehicle: saline) is listed as 0 of 6.
With `Clc1ncc(Br)c(Cl)n1`, the T/C runs as follows: (dose: 6.25 mg/kg/injection, schedule: Q01DX009 (ip), vehicle: Klucel (hydroxypropylcellulose) (HPC)) 130 % of control; (dose: 12.5 mg/kg/injection, schedule: Q01DX009 (ip), vehicle: Klucel (hydroxypropylcellulose) (HPC)) 135 % of control. Besides, the survivor count by setting is: under setting [1], 2 of 6; (dose: 185.0 mg/kg/injection, schedule: Q04DX003 (ip), vehicle: Klucel (hydroxypropylcellulose) (HPC)) 4 of 6.
Regarding `O=C(CBr)Nc1nccs1`, the survivor count (dose: 3.12 mg/kg/injection, schedule: Q01DX009 (ip), vehicle: saline) is listed as 6 of 6; the survivor count (dose: 6.25 mg/kg/injection, schedule: Q04DX003 (ip), vehicle: saline) was 6 of 6; the survivor count (dose: 50.0 mg/kg/injection, schedule: Q04DX003 (ip), vehicle: saline) was 4 of 6. In addition, the T/C (dose: 12.5 mg/kg/injection, schedule: Q04DX003 (ip), vehicle: saline) is 127 % of control.
For the compound `COc1cc(-c2ccc(N=Nc3c(O)ccc4ccccc34)c(OC)c2)ccc1N=Nc1ccc2c(S(=O)(=O)O)cc(S(=O)(=O)O)c(N)c2c1O`, the T/C under setting [2] is 127 % of control [5 of 6 alive].
As for `CCCCCCC1OCC2(CO1)COC(CCCCCC)OC2` (stereo not given), the survivor count (dose: 400.0 mg/kg/injection, schedule: Q04DX003 (ip), vehicle: saline with Tween-80) is 6 of 6.
For the compound `O=C1C=C(Nc2nc(O)cc(=O)[nH]2)c2ccccc2C1=O`, the survivor count (dose: 225.0 mg/kg/injection, schedule: Q04DX003 (ip), vehicle: Klucel (hydroxypropylcellulose) (HPC)) was 3 of 6 and the survivor count (dose: 335.0 mg/kg/injection, schedule: Q04DX003 (ip), vehicle: Klucel (hydroxypropylcellulose) (HPC)) is given as 2 of 6.
For `Cc1c(C)c([N+](=O)[O-])c(Br)c(C)c1[N+](=O)[O-]`, the T/C under setting [3] was 140 % of control.
Turning to `C/C(=N\NC(=S)N(C)C)c1ccccn1`, the survivor count by setting is: (dose: 6.25 mg/kg/injection, schedule: Q01DX009 (ip), vehicle: saline with Tween-80) 6 of 6; under setting [4], 1 of 6; under setting [5], 0 of 6; under setting [6], 0 of 6.
As for `Oc1ccccc1C1N=NC2=C(CCCC2)N1O` (stereo not given), under setting [7], the survivor count is 6 of 6.
As for `CC1=C[P+](c2ccccc2)(c2ccccc2)C=C(C)O1`, the survivor count runs as follows: (dose: 50.0 mg/kg/injection, schedule: Q01DX005 (ip), vehicle: saline) 0 of 5; (dose: 100.0 mg/kg/injection, schedule: Q01DX005 (ip), vehicle: saline) 0 of 5; (dose: 200.0 mg/kg/injection, schedule: Q01DX005 (ip), vehicle: saline) 0 of 5.
On to `NC(CC(=O)CCl)C(=O)O` (stereo not given), for which the T/C (dose: 6.25 mg/kg/injection, schedule: Q04DX003 (ip), vehicle: Klucel (hydroxypropylcellulose) (HPC)) was 146 % of control. Also, the survivor count is given as 6 of 6 (dose: 50.0 mg/kg/injection, schedule: Q04DX003 (ip), vehicle: Klucel (hydroxypropylcellulose) (HPC)) and 1 of 6 under setting [8].
As to `ClC1=C(Cl)C2(Cl)C(Br)C(Br)C1(Cl)C2(Cl)Cl` (stereo not given), the survivor count is given as 6 of 6 under setting [8]; 6 of 6 (dose: 200.0 mg/kg/injection, schedule: Q04DX003 (ip), vehicle: other); 6 of 6 (dose: 400.0 mg/kg/injection, schedule: Q04DX003 (ip), vehicle: Klucel (hydroxypropylcellulose) (HPC)).
As for `C=CCC(CC)C(=O)Cl` (stereo not given), the T/C reads like this: (dose: 100.0 mg/kg/injection, schedule: Q04DX003 (ip), vehicle: saline with Tween-80) 125 % of control; under setting [3], 127 % of control.
For `CNC(=N)c1ccc(NC(=N)c2ccc(NC(=O)Nc3ccc(C(=N)Nc4ccc(C(=N)NC)cc4)cc3)cc2)cc1`, the T/C by setting is: (dose: 3.0 mg/kg/injection, schedule: Q01DX009 (ip), vehicle: saline with Tween-80) 133 % of control; under setting [9], 135 % of control. Besides, the survivor count runs as follows: (dose: 18.0 mg/kg/injection, schedule: Q01DX009 (ip), vehicle: saline with Tween-80) 2 of 6 and 5 of 6; (dose: 25.0 mg/kg/injection, schedule: Q04DX003 (ip), vehicle: saline with Tween-80) 2 of 6; (dose: 50.0 mg/kg/injection, schedule: Q04DX003 (ip), vehicle: saline with Tween-80) 0 of 6.
`CC1CN1P(=O)(N1CC=CCC1)N1CC1C` (stereo not given): the T/C (dose: 25.0 mg/kg/injection, schedule: Q01DX009 (ip), vehicle: saline) is 141 % of control and the T/C (dose: 37.5 mg/kg/injection, schedule: Q01DX009 (ip), vehicle: saline) was 137 % of control. The survivor count is listed as 6 of 6 under setting [2], 6 of 6 under setting [10] and 3 of 6 under setting [11].
As for `c1ccc2c(c1)C1c3cccc[n+]3C2CC1n1c2ccccc2c2ccccc21` (stereo not given), the T/C under setting [1] is 141 % of control. Besides, the survivor count is on record as 6 of 6 (dose: 35.0 mg/kg/injection, schedule: Q01DX009 (ip), vehicle: Klucel (hydroxypropylcellulose) (HPC)); 0 of 6 under setting [7]; 4 of 6 (dose: 400.0 mg/kg/injection, schedule: Q01DX009 (ip), vehicle: Klucel (hydroxypropylcellulose) (HPC)).
`CNc1c(F)c(C#N)c(F)c(F)c1C#N`: the survivor count is recorded as 1 of 6 under setting [5] and 0 of 6 under setting [6].
Regarding `CN1C(=O)Nc2ccc(Cl)cc2C1(O)c1ccccc1` (stereo not given), the survivor count is listed as 6 of 6 under setting [4] and 6 of 6 under setting [6].
Consider `COc1cc(NCCCCCCNC(C)C)c2nccc(C)c2c1`, for which the survivor count is recorded as 0 of 6 (dose: 50.0 mg/kg/injection, schedule: Q01DX009 (ip), vehicle: saline); 0 of 6 under setting [2]; 0 of 6 (dose: 200.0 mg/kg/injection, schedule: Q01DX009 (ip), vehicle: saline).
`NC(=O)OCc1c(O)c2c(c(O)c1COC(N)=O)C(=O)C=CC2=O`: the survivor count by setting is: (dose: 100.0 mg/kg/injection, schedule: Q01DX009 (ip), vehicle: water) 6 of 6; (dose: 200.0 mg/kg/injection, schedule: Q01DX009 (ip), vehicle: water) 5 of 6; (dose: 400.0 mg/kg/injection, schedule: Q01DX009 (ip), vehicle: water) 3 of 6.
Regarding `O=C(Nc1ccc(NC2=NCCN2)cc1)c1cccc(C(=O)Nc2ccc(NC3=NCCN3)cc2)c1`, the T/C is 129 % of control (dose: 8.0 mg/kg/injection, schedule: Q01DX009 (ip), vehicle: saline with Tween-80); 125 % of control (dose: 13.2 mg/kg/injection, schedule: Q01DX009 (ip), vehicle: saline with Tween-80); 140 % of control (dose: 20.0 mg/kg/injection, schedule: Q01DX009 (ip), vehicle: saline with Tween-80). Besides, the survivor count (dose: 100.0 mg/kg/injection, schedule: Q04DX003 (ip), vehicle: saline) is reported as 0 of 6; the survivor count under setting [10] is 0 of 6; the survivor count under setting [11] is reported as 0 of 6.
Turning to `[CH3][Ga][CH3].[CH3][Ga][CH3].[CH3][Ga][CH3].[CH3][Ga][CH3].[OH3+].[OH3+].[OH3+].[OH3+]`, the survivor count is, setting by setting: under setting [9], 1 of 6; (dose: 10.0 mg/kg/injection, schedule: Q01DX009 (ip), vehicle: saline with Tween-80) 0 of 6.
In the case of `CC(C)(C)CC(C)(C)c1ccc(O)cc1O`, the survivor count under setting [5] was 6 of 6.
Consider `COn1nnc2c([N+](=O)[O-])cccc21`, for which the survivor count is 1 of 6 under setting [5] and 0 of 6 under setting [6].
